Reference: the supplement of paper PMC6411743
± gives the standard deviation of the averaged measurements. The list shows a part of the results, in another mix than the full data.

Protein sequences, listed by entry. Tags and fused reporters are not part of them. Lines headed by an entry give the natural chain unless they say otherwise; changes in a name come on top.
UniProt Q9HC21: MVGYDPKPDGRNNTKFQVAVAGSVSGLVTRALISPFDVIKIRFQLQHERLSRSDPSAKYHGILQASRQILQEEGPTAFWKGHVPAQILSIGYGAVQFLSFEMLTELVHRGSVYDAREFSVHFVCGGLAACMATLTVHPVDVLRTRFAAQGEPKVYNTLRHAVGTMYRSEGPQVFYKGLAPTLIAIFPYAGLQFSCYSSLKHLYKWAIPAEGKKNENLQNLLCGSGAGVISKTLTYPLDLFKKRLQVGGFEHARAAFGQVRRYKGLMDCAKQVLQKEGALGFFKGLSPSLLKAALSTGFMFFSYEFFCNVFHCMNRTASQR
UniProt Q9HB71, whole entry: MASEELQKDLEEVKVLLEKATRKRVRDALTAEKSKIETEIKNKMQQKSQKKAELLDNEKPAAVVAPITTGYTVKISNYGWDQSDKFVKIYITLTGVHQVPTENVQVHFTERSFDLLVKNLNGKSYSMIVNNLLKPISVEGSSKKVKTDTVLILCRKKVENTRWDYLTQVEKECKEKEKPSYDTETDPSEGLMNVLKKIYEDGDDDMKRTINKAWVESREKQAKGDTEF
UniProt Q9H3K6: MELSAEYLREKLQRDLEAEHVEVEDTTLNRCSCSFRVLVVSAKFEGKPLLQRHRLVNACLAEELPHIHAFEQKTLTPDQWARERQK
UniProt Q9H173: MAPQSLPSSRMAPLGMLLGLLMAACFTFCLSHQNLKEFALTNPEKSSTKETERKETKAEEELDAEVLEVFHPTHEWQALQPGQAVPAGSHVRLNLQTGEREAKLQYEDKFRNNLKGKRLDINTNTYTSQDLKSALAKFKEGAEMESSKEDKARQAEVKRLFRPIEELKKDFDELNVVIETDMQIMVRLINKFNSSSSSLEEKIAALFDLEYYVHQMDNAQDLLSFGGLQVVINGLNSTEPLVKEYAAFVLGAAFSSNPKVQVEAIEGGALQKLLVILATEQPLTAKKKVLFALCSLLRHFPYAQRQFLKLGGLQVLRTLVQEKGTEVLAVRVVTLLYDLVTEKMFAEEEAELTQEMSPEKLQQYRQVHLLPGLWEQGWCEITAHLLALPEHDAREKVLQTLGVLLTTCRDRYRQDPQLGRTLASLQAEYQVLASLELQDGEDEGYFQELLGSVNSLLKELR
UniProt Q9H2V7: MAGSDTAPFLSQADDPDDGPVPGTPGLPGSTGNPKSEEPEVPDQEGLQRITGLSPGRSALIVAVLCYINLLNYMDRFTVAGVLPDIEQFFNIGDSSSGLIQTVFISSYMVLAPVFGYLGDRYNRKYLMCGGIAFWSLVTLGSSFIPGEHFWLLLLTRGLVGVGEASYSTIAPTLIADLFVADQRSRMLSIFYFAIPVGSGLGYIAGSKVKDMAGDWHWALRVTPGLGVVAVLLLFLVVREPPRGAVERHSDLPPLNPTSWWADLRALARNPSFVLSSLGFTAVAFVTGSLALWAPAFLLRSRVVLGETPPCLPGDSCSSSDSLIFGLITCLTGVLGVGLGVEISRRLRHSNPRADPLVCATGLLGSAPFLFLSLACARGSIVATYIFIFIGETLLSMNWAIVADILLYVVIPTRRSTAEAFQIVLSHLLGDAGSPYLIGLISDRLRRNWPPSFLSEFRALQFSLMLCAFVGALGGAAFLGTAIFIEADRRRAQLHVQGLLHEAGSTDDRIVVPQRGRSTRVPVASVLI
UniProt Q9H8M7: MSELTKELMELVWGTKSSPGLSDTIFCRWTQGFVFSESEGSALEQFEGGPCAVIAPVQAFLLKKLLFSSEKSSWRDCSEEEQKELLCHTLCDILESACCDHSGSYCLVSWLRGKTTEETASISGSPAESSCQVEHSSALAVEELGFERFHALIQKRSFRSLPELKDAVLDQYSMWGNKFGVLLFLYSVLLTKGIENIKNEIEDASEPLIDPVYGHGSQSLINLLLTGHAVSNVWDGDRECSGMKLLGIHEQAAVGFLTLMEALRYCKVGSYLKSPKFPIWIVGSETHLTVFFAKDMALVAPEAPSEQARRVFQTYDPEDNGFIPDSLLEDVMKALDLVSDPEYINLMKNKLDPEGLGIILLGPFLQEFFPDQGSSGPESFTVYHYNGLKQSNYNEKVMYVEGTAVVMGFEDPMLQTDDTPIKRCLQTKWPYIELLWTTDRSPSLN
UniProt Q9H4E7, whole entry: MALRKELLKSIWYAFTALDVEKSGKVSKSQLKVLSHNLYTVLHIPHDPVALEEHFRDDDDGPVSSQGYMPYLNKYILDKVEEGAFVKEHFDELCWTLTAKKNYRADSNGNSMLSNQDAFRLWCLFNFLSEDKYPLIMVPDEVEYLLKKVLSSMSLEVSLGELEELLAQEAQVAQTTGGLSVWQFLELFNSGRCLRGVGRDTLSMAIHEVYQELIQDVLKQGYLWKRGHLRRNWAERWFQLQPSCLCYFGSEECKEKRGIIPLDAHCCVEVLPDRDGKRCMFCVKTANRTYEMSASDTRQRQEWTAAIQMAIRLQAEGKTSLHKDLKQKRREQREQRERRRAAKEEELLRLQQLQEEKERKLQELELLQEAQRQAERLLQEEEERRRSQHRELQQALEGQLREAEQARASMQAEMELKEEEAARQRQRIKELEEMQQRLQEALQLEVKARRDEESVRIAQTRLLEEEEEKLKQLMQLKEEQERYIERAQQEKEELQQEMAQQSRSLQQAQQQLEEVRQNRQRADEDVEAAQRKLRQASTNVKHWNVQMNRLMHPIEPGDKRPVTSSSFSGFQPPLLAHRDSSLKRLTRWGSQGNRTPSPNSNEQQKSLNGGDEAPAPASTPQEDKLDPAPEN
UniProt Q9H8P0: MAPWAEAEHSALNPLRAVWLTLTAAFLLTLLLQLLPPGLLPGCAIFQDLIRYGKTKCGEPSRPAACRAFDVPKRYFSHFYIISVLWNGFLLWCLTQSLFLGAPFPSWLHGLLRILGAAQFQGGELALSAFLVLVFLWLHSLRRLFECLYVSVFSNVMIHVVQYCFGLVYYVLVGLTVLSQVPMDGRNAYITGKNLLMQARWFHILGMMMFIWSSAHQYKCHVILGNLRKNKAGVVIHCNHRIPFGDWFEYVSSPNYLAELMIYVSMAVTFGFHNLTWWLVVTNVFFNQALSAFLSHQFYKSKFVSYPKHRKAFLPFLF
UniProt Q9H0A8, whole entry: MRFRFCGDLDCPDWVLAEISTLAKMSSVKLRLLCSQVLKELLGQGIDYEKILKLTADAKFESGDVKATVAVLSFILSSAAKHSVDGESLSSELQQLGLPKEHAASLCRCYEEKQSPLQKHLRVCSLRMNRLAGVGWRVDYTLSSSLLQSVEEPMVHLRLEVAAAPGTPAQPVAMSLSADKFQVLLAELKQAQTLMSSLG
UniProt Q9H1P3, whole entry: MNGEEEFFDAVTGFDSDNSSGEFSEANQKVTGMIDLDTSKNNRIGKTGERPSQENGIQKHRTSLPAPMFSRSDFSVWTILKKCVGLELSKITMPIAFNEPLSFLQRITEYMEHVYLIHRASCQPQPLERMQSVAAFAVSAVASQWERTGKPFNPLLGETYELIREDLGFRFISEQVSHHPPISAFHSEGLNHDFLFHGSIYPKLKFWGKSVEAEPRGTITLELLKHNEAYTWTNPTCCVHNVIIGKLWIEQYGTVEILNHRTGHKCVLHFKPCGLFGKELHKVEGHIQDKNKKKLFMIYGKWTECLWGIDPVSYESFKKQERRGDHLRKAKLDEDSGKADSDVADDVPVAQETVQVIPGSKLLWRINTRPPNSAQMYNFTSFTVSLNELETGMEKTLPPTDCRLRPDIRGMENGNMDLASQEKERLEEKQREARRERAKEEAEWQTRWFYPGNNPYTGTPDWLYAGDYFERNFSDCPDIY
UniProt Q9H4X1: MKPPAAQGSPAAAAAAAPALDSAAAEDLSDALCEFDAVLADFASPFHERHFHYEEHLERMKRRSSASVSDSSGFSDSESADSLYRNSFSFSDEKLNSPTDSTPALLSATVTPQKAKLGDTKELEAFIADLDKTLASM
UniProt Q9H1E3: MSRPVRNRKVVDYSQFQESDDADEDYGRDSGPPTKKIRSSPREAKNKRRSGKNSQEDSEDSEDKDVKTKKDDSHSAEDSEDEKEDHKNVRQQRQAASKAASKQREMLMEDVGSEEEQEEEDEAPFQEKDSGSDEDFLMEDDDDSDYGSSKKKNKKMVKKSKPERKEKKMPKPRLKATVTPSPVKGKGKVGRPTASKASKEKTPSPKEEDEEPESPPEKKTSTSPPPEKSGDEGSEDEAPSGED
UniProt Q9GZU8: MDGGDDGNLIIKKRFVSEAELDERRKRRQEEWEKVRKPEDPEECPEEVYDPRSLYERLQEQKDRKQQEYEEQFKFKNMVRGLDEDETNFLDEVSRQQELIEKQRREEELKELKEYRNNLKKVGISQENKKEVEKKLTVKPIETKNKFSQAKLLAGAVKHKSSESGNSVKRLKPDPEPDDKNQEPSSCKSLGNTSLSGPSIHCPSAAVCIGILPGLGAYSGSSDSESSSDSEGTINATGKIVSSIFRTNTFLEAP
UniProt Q9H8V3: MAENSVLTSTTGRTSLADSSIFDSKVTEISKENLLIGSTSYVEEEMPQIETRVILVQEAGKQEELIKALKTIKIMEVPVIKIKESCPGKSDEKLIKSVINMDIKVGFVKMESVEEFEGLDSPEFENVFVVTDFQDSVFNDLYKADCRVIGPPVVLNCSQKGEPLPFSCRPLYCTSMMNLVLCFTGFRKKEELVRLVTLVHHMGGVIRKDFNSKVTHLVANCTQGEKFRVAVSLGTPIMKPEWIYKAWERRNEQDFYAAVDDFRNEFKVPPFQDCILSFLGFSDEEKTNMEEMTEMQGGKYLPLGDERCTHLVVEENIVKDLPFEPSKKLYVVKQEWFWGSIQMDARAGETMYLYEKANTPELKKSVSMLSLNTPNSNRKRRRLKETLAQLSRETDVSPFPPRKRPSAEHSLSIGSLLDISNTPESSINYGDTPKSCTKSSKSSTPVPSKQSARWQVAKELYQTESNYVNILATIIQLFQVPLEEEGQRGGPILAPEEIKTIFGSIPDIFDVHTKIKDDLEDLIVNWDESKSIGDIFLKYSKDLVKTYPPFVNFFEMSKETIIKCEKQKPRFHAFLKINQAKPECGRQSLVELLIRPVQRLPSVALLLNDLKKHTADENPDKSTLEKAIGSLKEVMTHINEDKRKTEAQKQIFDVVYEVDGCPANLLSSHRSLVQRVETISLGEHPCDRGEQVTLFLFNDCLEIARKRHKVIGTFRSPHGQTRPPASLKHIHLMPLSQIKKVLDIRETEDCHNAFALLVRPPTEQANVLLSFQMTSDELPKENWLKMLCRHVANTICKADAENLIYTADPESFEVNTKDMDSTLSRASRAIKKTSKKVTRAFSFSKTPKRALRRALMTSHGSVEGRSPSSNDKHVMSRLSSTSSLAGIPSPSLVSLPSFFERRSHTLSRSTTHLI
UniProt Q9HBI0: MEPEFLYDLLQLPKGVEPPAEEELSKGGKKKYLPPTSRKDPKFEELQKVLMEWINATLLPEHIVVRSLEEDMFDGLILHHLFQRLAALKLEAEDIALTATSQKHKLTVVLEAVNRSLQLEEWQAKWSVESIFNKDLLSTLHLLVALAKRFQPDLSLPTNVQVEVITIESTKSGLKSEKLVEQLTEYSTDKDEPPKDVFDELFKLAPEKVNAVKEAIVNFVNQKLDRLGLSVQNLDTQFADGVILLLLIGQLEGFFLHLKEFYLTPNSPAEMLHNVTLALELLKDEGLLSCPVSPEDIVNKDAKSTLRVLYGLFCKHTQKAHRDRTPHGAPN
UniProt Q9H814, whole entry: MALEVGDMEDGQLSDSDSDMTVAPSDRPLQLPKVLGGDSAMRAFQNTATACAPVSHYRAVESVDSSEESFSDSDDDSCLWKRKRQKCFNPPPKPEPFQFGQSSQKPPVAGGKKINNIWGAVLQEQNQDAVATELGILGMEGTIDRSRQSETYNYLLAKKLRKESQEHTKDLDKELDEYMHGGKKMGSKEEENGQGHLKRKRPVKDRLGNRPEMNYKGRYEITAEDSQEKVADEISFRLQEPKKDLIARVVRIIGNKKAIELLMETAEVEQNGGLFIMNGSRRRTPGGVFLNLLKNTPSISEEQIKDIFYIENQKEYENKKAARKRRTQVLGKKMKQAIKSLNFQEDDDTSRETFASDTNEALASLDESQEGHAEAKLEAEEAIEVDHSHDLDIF
UniProt Q9H9A6: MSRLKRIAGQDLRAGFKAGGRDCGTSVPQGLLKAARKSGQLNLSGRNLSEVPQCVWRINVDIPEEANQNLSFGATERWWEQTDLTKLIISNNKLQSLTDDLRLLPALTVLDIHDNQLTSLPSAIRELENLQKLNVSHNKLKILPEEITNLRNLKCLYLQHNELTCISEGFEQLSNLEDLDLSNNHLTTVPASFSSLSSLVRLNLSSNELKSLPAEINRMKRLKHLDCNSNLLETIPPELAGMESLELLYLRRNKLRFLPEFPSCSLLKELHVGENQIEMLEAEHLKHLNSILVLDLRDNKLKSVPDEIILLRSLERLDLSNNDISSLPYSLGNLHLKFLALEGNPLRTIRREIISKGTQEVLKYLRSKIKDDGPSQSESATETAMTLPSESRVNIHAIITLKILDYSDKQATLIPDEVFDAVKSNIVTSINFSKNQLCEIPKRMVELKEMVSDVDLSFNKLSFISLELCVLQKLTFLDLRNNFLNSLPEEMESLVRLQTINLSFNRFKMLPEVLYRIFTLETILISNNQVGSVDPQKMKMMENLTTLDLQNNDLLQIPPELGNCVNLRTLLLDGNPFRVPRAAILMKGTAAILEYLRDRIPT

Compound: Nc1ncnc2c1ncn2[C@@H]1O[C@H](COP(=O)(O)OP(=O)(O)NP(=O)(O)O)[C@@H](O)[C@H]1O [adenylyl imidodiphosphate]
Assay: NP40-soluble protein abundance relative to vehicle (solubility fold change) (ratio); higher = more soluble protein in presence of AMP-PNP
Outline: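 In three independent experiments, Jurkat crude lysate made by Dounce homogenisation was treated for 10 min at room temperature and then 3 min at 37 °C with eight concentrations ranging from 0.1 to 10 mM. It was then solubilised with 0.8% NP40 plus benzonase for 60 min at 4 °C and ultracentrifuged. The supernatant was TMT-labelled for LC-MS/MS, and each value is the fold change against the detergent-processed vehicle for the same replicate, using vsn-normalised intensities.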

Target	NP40-soluble protein abundance (concentration: 1mM)	NP40-soluble protein abundance (concentration: 2mM)	NP40-soluble protein abundance (concentration: 4mM)	NP40-soluble protein abundance (concentration: 6mM)	NP40-soluble protein abundance (concentration: 8mM)	NP40-soluble protein abundance (concentration: 10mM)
UniProt Q9HC21 and related entries	0.969 ± 0.035	0.907 ± 0.024	0.958 ± 0.061	0.973 ± 0.059	1.02 ± 0.073	0.99 ± 0.079
ILKAP (UniProt Q9H0C8)	0.986 ± 0.022	0.976 ± 0.03	0.98 ± 0.034	0.991 ± 0.016	1.01 ± 0.021	0.983 ± 0.037
CACYBP (UniProt Q9HB71)	1.018 ± 0.0083	1.06 ± 0.076	0.975 ± 0.013	1.04 ± 0.0074	1.01 ± 0.032	1.03 ± 0.034
UniProt Q9H857 and related entries	0.953 ± 0.025	0.872 ± 0.1	0.933 ± 0.037	0.912 ± 0.02	0.936 ± 0.017	0.886 ± 0.038
BOLA2 (UniProt Q9H3K6)	0.981 ± 0.029	1.04 ± 0.051	0.974 ± 0.045	1.05 ± 0.11	1.04 ± 0.098	1.02 ± 0.1
UniProt Q9H173 and related entries	0.983 ± 0.025	1.02 ± 0.056	0.98 ± 0.05	0.983 ± 0.04	0.965 ± 0.032	0.954 ± 0.016
WDR12 (UniProt Q9GZL7)	0.997 ± 0.017	0.928 ± 0.082	0.979 ± 0.011	1 ± 0.028	0.999 ± 0.016	0.94 ± 0.033
UniProt Q9H2V7 and related entries	0.986 ± 0.017	0.988 ± 0.029	0.985 ± 0.013	0.982 ± 0.016	0.997 ± 0.03	0.998 ± 0.052
UniProt Q9H8M7	0.968 ± 0.01	0.97 ± 0.019	1 ± 0.033	0.985 ± 0.022	0.979 ± 0.014	0.982 ± 0.021
DEF6 (UniProt Q9H4E7)	1.03 ± 0.014	1.05 ± 0.058	1.01 ± 0.014	1.03 ± 0.023	0.999 ± 0.013	1.02 ± 0.03
WDR54 (UniProt Q9H977)	0.992 ± 0.02	0.99 ± 0.011	1.02 ± 0.051	1.01 ± 0.04	1.02 ± 0.039	0.969 ± 0.042
CPVL (UniProt Q9H3G5)	0.996 ± 0.037	0.993 ± 0.081	0.998 ± 0.033	0.974 ± 0.051	1 ± 0.029	0.983 ± 0.059
UniProt Q9H3N1	0.997 ± 0.022	1.01 ± 0.023	0.968 ± 0.011	0.953 ± 0.014	0.945 ± 0.028	0.9607 ± 0.0085
UniProt Q9H8P0 and related entries	0.933 ± 0.084	0.9132 ± 0.0065	0.948 ± 0.063	0.999 ± 0.14	1.02 ± 0.12	1.05 ± 0.15
UniProt Q9H0A8 and related entries	0.988 ± 0.027	0.996 ± 0.014	1.01 ± 0.025	1.03 ± 0.047	1.06 ± 0.03	1.06 ± 0.027
TAOK3 (UniProt Q9H2K8)	1.04 ± 0.019	1.05 ± 0.06	1.03 ± 0.033	1.05 ± 0.041	1.04 ± 0.033	1.07 ± 0.065
UniProt Q9H1P3 and related entries	1.02 ± 0.017	1.02 ± 0.062	1.01 ± 0.025	0.993 ± 0.025	0.988 ± 0.04	0.99 ± 0.015

Target	NP40-soluble protein abundance (concentration: 1mM)	NP40-soluble protein abundance (concentration: 2mM)	NP40-soluble protein abundance (concentration: 4mM)	NP40-soluble protein abundance (concentration: 6mM)	NP40-soluble protein abundance (concentration: 8mM)	NP40-soluble protein abundance (concentration: 10mM)
UniProt Q9H4X1 and related entries	1.02 ± 0.029	1.03 ± 0.08	1.01 ± 0.026	1 ± 0.028	0.997 ± 0.03	0.976 ± 0.021
ACTR8 (UniProt Q9H981)	1.033 ± 0.0093	1.02 ± 0.038	1.06 ± 0.019	1.07 ± 0.028	1.06 ± 0.023	1.07 ± 0.017
NUCKS1 (UniProt Q9H1E3)	1.02 ± 0.037	1.11 ± 0.079	1.03 ± 0.046	1.07 ± 0.033	1.07 ± 0.035	1.04 ± 0.059
UniProt Q9GZU8	1.02 ± 0.055	1.07 ± 0.044	0.995 ± 0.058	0.973 ± 0.049	0.931 ± 0.044	0.948 ± 0.034
TMEM165 (UniProt Q9HC07)	1.06 ± 0.061	1.09 ± 0.09	1.04 ± 0.046	1.05 ± 0.046	1.04 ± 0.038	1.04 ± 0.03
ACBD3 (UniProt Q9H3P7)	1.04 ± 0.019	1.02 ± 0.026	1.02 ± 0.015	1.003 ± 0.0074	1 ± 0.037	0.997 ± 0.024
UniProt Q9H8V3 and related entries	0.979 ± 0.041	0.963 ± 0.041	0.9918 ± 0.0047	0.985 ± 0.015	1 ± 0.03	0.989 ± 0.042
RPAP3 (UniProt Q9H6T3)	1.02 ± 0.031	1.05 ± 0.034	1.01 ± 0.021	0.998 ± 0.042	0.9611 ± 0.0081	0.993 ± 0.019
GHITM (UniProt Q9H3K2)	0.981 ± 0.037	0.937 ± 0.04	0.977 ± 0.01	0.986 ± 0.037	0.989 ± 0.021	0.962 ± 0.037
PARVG (UniProt Q9HBI0)	0.993 ± 0.019	0.995 ± 0.039	1 ± 0.033	0.942 ± 0.014	0.931 ± 0.018	0.932 ± 0.02
PHAX (UniProt Q9H814)	1.02 ± 0.025	1.06 ± 0.043	1.05 ± 0.058	0.994 ± 0.03	0.995 ± 0.033	1.04 ± 0.078
LRRC40 (UniProt Q9H9A6)	0.993 ± 0.074	0.943 ± 0.057	0.955 ± 0.051	0.918 ± 0.065	0.928 ± 0.064	0.939 ± 0.051
SFXN1 (UniProt Q9H9B4)	0.986 ± 0.018	0.959 ± 0.0066	0.982 ± 0.035	0.977 ± 0.029	0.983 ± 0.029	0.97 ± 0.03
SSU72 (UniProt Q9NP77)	1.04 ± 0.06	1.06 ± 0.026	1.02 ± 0.065	1.02 ± 0.053	1.04 ± 0.03	1.07 ± 0.047
UniProt Q9NPG3 and related entries	1.01 ± 0.013	1.05 ± 0.037	1.07 ± 0.021	1.06 ± 0.034	1.06 ± 0.022	1.09 ± 0.067
UniProt Q9NPA8 and related entries	1.05 ± 0.058	1.06 ± 0.059	0.987 ± 0.044	1.06 ± 0.024	0.963 ± 0.035	1.07 ± 0.075

Already shown: entries from further up.
Target	NP40-soluble protein abundance (concentration: 1mM)	NP40-soluble protein abundance (concentration: 2mM)	NP40-soluble protein abundance (concentration: 4mM)	NP40-soluble protein abundance (concentration: 6mM)	NP40-soluble protein abundance (concentration: 8mM)	NP40-soluble protein abundance (concentration: 10mM)
RPAP3 (UniProt Q9H6T3)	1.02 ± 0.031	1.05 ± 0.034	1.01 ± 0.021	0.998 ± 0.042	0.9611 ± 0.0081	0.993 ± 0.019
GHITM (UniProt Q9H3K2)	0.981 ± 0.037	0.937 ± 0.04	0.977 ± 0.01	0.986 ± 0.037	0.989 ± 0.021	0.962 ± 0.037
PARVG (UniProt Q9HBI0)	0.993 ± 0.019	0.995 ± 0.039	1 ± 0.033	0.942 ± 0.014	0.931 ± 0.018	0.932 ± 0.02
